Test results taken from BigSolDB 2.1.

NC(Cc1ccc(O)cc1)C(=O)O (racemic)
solubility (mole fraction)
Conditions	278.15 K	283.15 K	288.15 K	293.15 K	298.15 K	303.15 K	308.15 K	313.15 K	318.15 K
in DMF	3.1e-05	4.1e-05	5.2e-05	6.6e-05	8.3e-05	9.9e-05	0.000122	0.00014	0.000155
in water	2.3e-05	2.7e-05	3.4e-05	3.8e-05	4.5e-05	5.6e-05	6.5e-05	7.4e-05	8.6e-05
